The target of this experiment is T1, OsDCL1-RBD (two C-terminal dsRBDs of DICER-LIKE1, AA1706-1870) (rice (Oryza sativa)) (UniProt Q8LMR2).
T1 sequence: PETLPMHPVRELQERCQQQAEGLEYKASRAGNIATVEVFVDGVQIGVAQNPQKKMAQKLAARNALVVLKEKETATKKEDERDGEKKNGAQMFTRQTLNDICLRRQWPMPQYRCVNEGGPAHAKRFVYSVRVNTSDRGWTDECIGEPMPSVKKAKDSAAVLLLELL
Nature of the experiment: two-hybrid; Matchmaker GAL4 two-hybrid system 3 (Clontech), Y2HGold yeast; OsDRB2 on GAL4 AD (pGADT7), DCL1-RBD or OsDRB1-2 on GAL4 BD (pGBKT7); growth on selective -Ade/-His/-Leu/-Trp plates, 28 °C.

No constants are given. Whether binding was seen depends on the method and setting. Some results given as binding are weak or reduced against the parent protein; the word gives no strength.

B1: OsDRB2 (DOUBLE-STRANDED RNA-BINDING2) (protein, UniProt Q9AV50 1-514)
chain: MYKNQLQELAQRSCFNLPAYTCLREGPDHAPRFKAAVNFNGEQFESPGFFTTLRQAEHAAAEVALAALARRGPSYSLAARILDETGVYKNLLQEVAQRVGAPLPSYTTERSGLGHLPVFTCTVELAGITFTGDPAKNKKQAEKNAASAAWSSLRQLVRQEASSSNEPESNDEQEQIRIARALLNYRLKEKMAMANNPHASPFPKKFPMQPERRTAFPQSSHSSYSKILPLFRPKSNSRSRPESPAASDAASQTPFRPTESPNPRSRFPAAEAAPYVPVGHFRMPCHSMAPPVTVRTSIPVFSAPPLPPPGARTQQLPPLMSHPPPIRMASPVRIRPAPPLFTPSAVQGPKPMMPVQIKDVQHQQIKETRSPVMPVQVKDAQNQLLKGSLSPVIPVQIKDVQSQPPKEALSPAIPVQIKDVQLQPRNEPVSIGKGVVPLPAIRPPVKVEAPAEVKEASQPVAGSSVVQCKADTSPDSLPKTQLKTANADNADAKDDHLPVDAEEVEDIIRHLELK
Turning to B1, the binding entry is “binds”.

The values are drawn from publication PMC9570175.
